{"source": "patent US20210261944", "about": "“Compositions and methods for ordered and continuous complementary DNA (cDNA) synthesis across non-continuous templates” (The Regents of the University of California, published 2021)", "tested_on": "T1, BomoC(ed) R2 RT (deltaN274, D996A) (Bombyx mori)", "T1 sequence (limits assumed)": "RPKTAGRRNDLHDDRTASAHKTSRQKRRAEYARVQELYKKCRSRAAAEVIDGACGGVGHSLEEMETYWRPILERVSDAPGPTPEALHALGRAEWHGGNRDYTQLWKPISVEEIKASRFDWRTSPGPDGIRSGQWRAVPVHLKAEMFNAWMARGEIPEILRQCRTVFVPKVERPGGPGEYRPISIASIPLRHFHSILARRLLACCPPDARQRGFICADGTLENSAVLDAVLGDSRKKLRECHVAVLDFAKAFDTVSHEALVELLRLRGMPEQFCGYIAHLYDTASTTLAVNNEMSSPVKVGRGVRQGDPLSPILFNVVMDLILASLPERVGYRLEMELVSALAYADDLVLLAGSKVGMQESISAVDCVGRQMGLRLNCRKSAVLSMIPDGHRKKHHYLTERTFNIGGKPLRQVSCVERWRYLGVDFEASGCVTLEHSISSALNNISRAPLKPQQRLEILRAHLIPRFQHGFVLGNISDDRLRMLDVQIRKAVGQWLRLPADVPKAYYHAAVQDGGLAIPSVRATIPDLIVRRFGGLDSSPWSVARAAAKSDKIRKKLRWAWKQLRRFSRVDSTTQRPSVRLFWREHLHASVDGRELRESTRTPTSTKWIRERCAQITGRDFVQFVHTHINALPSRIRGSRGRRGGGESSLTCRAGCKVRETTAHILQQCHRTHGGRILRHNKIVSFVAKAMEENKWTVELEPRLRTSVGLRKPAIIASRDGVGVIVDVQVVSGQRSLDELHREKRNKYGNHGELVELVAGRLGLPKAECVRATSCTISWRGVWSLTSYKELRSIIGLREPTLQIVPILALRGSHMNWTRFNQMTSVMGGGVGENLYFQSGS", "experiment": "binding assay", "conditions": "5' phosphate; last 6 nt ribonucleotides; 3' adaptor template for low-PCR library; Mg2+, 37C; purified recombinant protein; protein details: N-terminal MBP, C-terminal 6xHis", "note": "For at least one entry, the source does not settle the construct or the ends of the probe. Where a protein sequence is shown, tags need not be part of it."}
{"sequence": "ACACTCTTTCCCTACACGACGCTCTTCCGATCTC [low-PCR adaptor template c3t(uni)]", "values": [{"measurement": "binding result", "result": "binds"}]}
